Reference: PubChem BioAssay AID662 (National Center for Advancing Translational Sciences (NCATS), 2007)
The list shows a part of the results. The main result of the screen is listed elsewhere. These columns were measured beside it and carry no call. Most of these compounds were active or inconclusive in the main read-out, so they are no random draw. Words in brackets tell the shape of the fitted curve; partial curves, single points and poor fits give uncertain potencies.

experiment: Cell signaling CRE-BLA (Fsk stim); conditions: CHO CRE-bla reporter (cAMP response element driving beta-lactamase), forskolin EC10, beta-lactamase ratio; measured here: 460 nm blue channel
How it was run: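 Beta-lactamase reporter under a cAMP responsive element in CHO cells; compounds tested in titration series against EC10 NKH 477, 3 h at 37 °C. Read-out: CCF4 FRET ratio 460nm/530nm (excitation 405nm) giving %Activity, fitted to AC50.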

SMILES | AC50
C=C(C)COc1ccc(-c2nc(N)nc(C)c2Oc2ccccc2OC)c(O)c1 | 6.31 µM [falling, partial curve]
COc1ccc(-n2c(Cc3cccn3C)nnc2SCC(=O)Nc2cccc(Cl)c2)cc1 | 12.6 µM [falling, partial curve]
COc1ccc2[nH]c(=O)c(CN(C(=O)c3ccco3)C3CCCCC3)cc2c1 | 10 µM [rising, single point]
COC(=O)c1[nH]c2ccc(C)cc2c1NC(=O)CCN1CCN(C2CCCCC2)CC1 | 3.16 µM [falling, single point]
C(=C\CSc1nnnn1-c1ccccc1)/CSc1nnnn1-c1ccccc1 | 20 µM [falling, single point]
COc1cc(C(=O)NCc2cn3ccsc3n2)cc(OC)c1OC | 10 µM [rising, partial curve]
CC(C)Cn1c(N)c(C(=O)COC(=O)c2ccc3ccccc3n2)c(=O)n(C)c1=O | 0.794 µM [rising, full curve]
Cc1cccc2cc(CN(CCN3CCCC3)C(=O)NC3CCCCC3)c(=O)[nH]c12 | 25.1 µM [falling, single point]
Cc1c(S(=O)(=O)Nc2cccc(Cl)c2)c(=O)n(C)c(=O)n1C | 0.631 µM [rising, partial curve]
Cc1cc(C)nc(SCc2csc(N)n2)n1 | 0.631 µM [rising, single point]
O=S(=O)(CCSc1ccccn1)c1nc2ccccc2s1 | 10 µM [falling, partial curve, poor fit]
CC(=O)c1cccc(NC(=O)C2CCN(S(=O)(=O)c3c(C)n[nH]c3C)CC2)c1 | 3.98 µM [falling, full curve, poor fit]
Cn1cnnc1SCC(=O)Nc1sccc1C#N | 3.16 µM [falling, partial curve]
COc1cccc(-c2nn(C)c3sc(C(=O)Nc4ccc5c(c4)OCCO5)cc23)c1 | 6.31 µM [rising, partial curve]
COc1ccc2nc(NC(=O)CSC3=NCCS3)sc2c1 | 25.1 µM [falling, single point]
O=C(CN1C(=O)C2CC=C(Cl)CC2C1=O)NCc1ccccc1 (stereo not drawn) | 0.794 µM [rising, partial curve]
CCN1C(=O)NC2C1N(S(C)(=O)=O)CCN2S(C)(=O)=O (stereo not drawn) | 5.01 µM [falling, partial curve]
O=C(c1ccccc1)c1ccc2nc(N3CCN(C(=O)c4ccco4)CC3)c3nncn3c2c1 | 10 µM [rising, single point]
CCOc1cc(N2CCOCC2)c(OCC)cc1NC(=O)Cn1[nH]c(=O)c2ccccc2c1=O | 0.1 µM [rising, full curve]
CCn1c(SCc2cccnc2)nc2c1c(=O)n(C)c(=O)n2C | 6.31 µM [rising, partial curve]
Cc1ccc(-c2n[nH]c(=O)c3ccccc23)cc1N | 25.1 µM [falling, single point]
N#Cc1nc(-c2ccc(Cl)cc2)oc1NCc1cccc2c1OCO2 | 7.94 µM [rising, partial curve]

SMILES | AC50
COc1ccc(S(=O)(=O)N2CCCC(C(=O)O)C2)cc1 (stereo not drawn) | 0.0631 µM [rising, full curve, poor fit]
O/N=C1\CC/C(=N\O)c2nn(-c3ccccc3Cl)nc21 | 25.1 µM [falling, single point]
COc1ccc(Oc2ncc3nc(-c4cn(C)c5ccccc45)c(=O)n(C4CC4)c3n2)cc1 | 1.26 µM [rising, full curve]
COC(=O)c1sc(N)c(C(=O)OC)c1CSc1nc2sc3c(c2c(=O)n1C)CCC3 | 25.1 µM [rising, single point]
CSC1=NCCN1C(=O)c1ccc(S(=O)(=O)N2CCCCC2)cc1 | 10 µM [rising, single point]
CC(C)c1cccc2nc3c(c(C(C)(C)C)c12)Cn1c-3cccc1=O | 10 µM [rising, partial curve]
O=C(Nc1cccc(-c2nnc(-c3ccccc3)o2)c1)c1ccc(Br)o1 | 12.6 µM [falling, single point]
CC(=O)C1=C(C)NC(C)=C(C(C)=O)C1c1ccc(-c2ccccc2Cl)o1 | 25.1 µM [rising, single point]
COC(=O)c1ccccc1NC(=O)CSc1nc(-c2ccco2)cc(C(F)(F)F)n1 | 1.26 µM [rising, full curve]
CCN(CC)c1ccc2cc(-c3nc4ccccc4[nH]3)c(=O)oc2c1 | 3.16 µM [rising, partial curve]
COCCOC(=O)C1=C(C)NC2=C(C(=O)CC(c3cccs3)C2)C1c1ccsc1 (stereo not drawn) | 12.6 µM [rising, partial curve]
O=C(O)c1ccc2c3c1cccc3c(=O)n1c3ccccc3nc21 | 5.01 µM [rising, partial curve]
CC(C)(C)n1ncc2c(=O)n(CC(=O)NC3CCCCC3)cnc21 | 0.316 µM [falling, partial curve]
Cn1c(C(=O)Nc2ccc3c(c2)OCCO3)cc2c(=O)n(C)c3ccccc3c21 | 0.398 µM [rising, full curve]
CC(=O)Cc1nsc(NC(=O)c2ccc(-c3ccc(Cl)c(C(F)(F)F)c3)o2)n1 | 25.1 µM [falling, single point]
COc1ccc(-c2nnc(SCC(=O)N3CCCc4ccccc43)o2)cc1OC | 1.26 µM [rising, partial curve]
Cc1c(-c2nc(N)nc(Nc3ccccc3F)n2)oc2ccccc12 | 2 µM [rising, full curve]
O=C(c1cccc(F)c1)N1CCC2(CCCN(C(c3ccccc3)c3ccccc3)C2)CC1 | 12.6 µM [rising, single point]
COc1ccc(-n2c(=O)c(C)nc3cnc(N(C)C)nc32)cc1 | 12.6 µM [rising, partial curve]
CCn1c(=O)c(C(=O)NCc2cccnc2)c(O)c2ccccc21 | 2.51 µM [rising, full curve]
O=C(NCc1ccco1)c1ccccc1Br | 20 µM [falling, single point]

Not a retest: entries from further up.
SMILES | AC50
COc1ccc(Oc2ncc3nc(-c4cn(C)c5ccccc45)c(=O)n(C4CC4)c3n2)cc1 | 1.26 µM [rising, full curve]
COC(=O)c1sc(N)c(C(=O)OC)c1CSc1nc2sc3c(c2c(=O)n1C)CCC3 | 25.1 µM [rising, single point]
CSC1=NCCN1C(=O)c1ccc(S(=O)(=O)N2CCCCC2)cc1 | 10 µM [rising, single point]
